For this assay, the system named is CD2F1 mice, L1210 leukemia ip, survival T/C. The experiment in a line: NCI In Vivo Anticancer Drug Screen. Data for tumor model L1210 Leukemia (intraperitoneal) in CD2F1 (CDF1) mice. The settings on record: higher T/C = longer survival. An outline of the steps:
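Each value reflects a quotient of treated over vehicle control outcomes in mice with a transplanted tumor.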

Where [1] appears, read: T/C endpoint: mean survival time, dose: 200.0 mg/kg/injection, schedule: Q01DX009 (ip), vehicle: saline.
The mark [2] stands for this setting: T/C endpoint: mean survival time, dose: 400.0 mg/kg/injection, schedule: Q04DX003 (ip), vehicle: saline with Tween-80.
Setting [3] is: T/C endpoint: mean survival time, dose: 400.0 mg/kg/injection, schedule: Q01DX009 (ip), vehicle: water.
[4] abbreviates: T/C endpoint: mean survival time, dose: 400.0 mg/kg/injection, schedule: Q01DX001 (ip), vehicle: saline with Tween-80.
Setting [5] is: T/C endpoint: mean survival time, dose: 200.0 mg/kg/injection, schedule: Q04DX003 (ip), vehicle: saline with Tween-80.
Setting [6] is: T/C endpoint: mean survival time, dose: 100.0 mg/kg/injection, schedule: Q01DX001 (ip), vehicle: saline with Tween-80.
[7] abbreviates: T/C endpoint: mean survival time, dose: 300.0 mg/kg/injection, schedule: Q01DX001 (ip), vehicle: saline.
The mark [8] stands for this setting: T/C endpoint: mean survival time, dose: 100.0 mg/kg/injection, schedule: Q04DX003 (ip), vehicle: saline with Tween-80.

The list shows only some results of the screen, not a fair sample: it gathers tests that were run many times, whatever their T/C, doses with no T/C, and many T/C values between a quarter and a half above the control. Further doses and runs are listed elsewhere. T/C is the treated group as % of the vehicle group. Some doses have a count of surviving animals in place of a T/C: the source files T/C as zero there, which appears to mark a toxic dose or a test without result, not a measured value. Some doses without a T/C left all or most animals alive at the check, yet need not have been tolerated: survival well below the control is almost never listed, so the zero probably covers shortened survival too. Counts of survivors are from the toxicity check (mostly the fifth day) where no day follows; animals may have died later. Schedule codes are those of the source, read here as Q, the interval in days (D) or hours (H), X, the number of doses. For survival time, this PubChem deposit counts one and a half times the control or more as active, and values a quarter to a half above the control carry no call in these data; other NCI protocols may use other cut-offs. Some T/C values carry the count of animals alive at the toxicity check (mostly the fifth day); without a count, all were alive then. Some doses were run more than once; their values stand side by side, smallest first.

For the compound `Nc1nc2ncc(CSc3ccc(C(=O)NC(CCC(=O)O)C(=O)O)cc3)nc2c(=O)[nH]1` (centres undefined), where the note is “T/C endpoint: mean survival time, dose: 8.0 mg/kg/injection, schedule: Q01DX009 (ip), vehicle: sodium bicarbonate”, the T/C was 127 % of control.

For `COc1cc2cc(c1Cl)N(C)C(=O)CC(OC(=O)C(C)N(C)C(=O)C(C)C)C1(C)OC1C(C)C1CC(O)(NC(=O)O1)C(OC)/C=C/C=C(C)C2` (centres undefined), the T/C (T/C endpoint: mean survival time, dose: 20.0 micrograms/kg/injection, schedule: Q01DX009 (ip), vehicle: saline + alcohol) is 125 % of control.

Take `CCN(CC)CCCCNc1ccc(NCCCCN(CC)CC)c2c1C(=O)c1ccccc1C2=O`: the survivor count under setting [1] is 0 of 6.

Consider `O=C(O)c1ccccc1C(=O)OCC(c1ccccc1)c1ccccc1`, for which the survivor count under setting [2] is on record as 0 of 3.

Take `NCc1ccc([N+](=O)[O-])cc1Cl`: where the note is “T/C endpoint: mean survival time, dose: 200.0 mg/kg/injection, schedule: Q01DX009 (ip), vehicle: saline with Tween-80”, the survivor count is 1 of 3.

Take `Cc1ccc(C(=O)N/N=C/C(=O)O)cc1`: the survivor count under setting [3] is reported as 3 of 6.

Regarding `O=C(OCC1OC(n2nc(SCc3ccccc3)c(=O)[nH]c2=O)C(OC(=O)c2ccccc2)C1OC(=O)c1ccccc1)c1ccccc1` (centres undefined), the survivor count (T/C endpoint: mean survival time, dose: 200.0 mg/kg/injection, schedule: Q01DX005 (ip), vehicle: distilled water + Tween-80) is 6 of 6.

As for `CC(O)C[As](=O)(O)c1ccccc1Cl` (centres undefined), for the setting “T/C endpoint: mean survival time, dose: 25.0 mg/kg/injection, schedule: Q04DX003 (ip), vehicle: saline”, the survivor count is on record as 2 of 6.

Turning to `CCCCCC#CC1OC12CCCCC2` (centres undefined), the survivor count (T/C endpoint: mean survival time, dose: 400.0 mg/kg/injection, schedule: Q01DX009 (sc), vehicle: saline with Tween-80) is given as 4 of 6.

For the compound `CCN(CC)c1ccc(N=Cc2cc(=O)n(C)c3ccccc23)cc1`, where the note is “T/C endpoint: mean survival time, dose: 200.0 mg/kg/injection, schedule: Q01DX001 (ip), vehicle: saline with Tween-80”, the survivor count is reported as 6 of 6.

`COc1cccc(C(=O)c2ccncc2C)c1OC`: the survivor count under setting [3] was 1 of 6.

Take `COC(=O)C(N)CCCCNc1ccc2c(cc1=O)C(NC(C)=O)CCc1cc(OC)c(OC)c(OC)c1-2` (centres undefined): the survivor count by setting is: (T/C endpoint: mean survival time, dose: 270.0 mg/kg/injection, schedule: Q01DX009 (ip), vehicle: saline) 6 of 10; (T/C endpoint: mean survival time, dose: 400.0 mg/kg/injection, schedule: Q01DX009 (oral), vehicle: saline) 1 of 6; (T/C endpoint: mean survival time, dose: 400.0 mg/kg/injection, schedule: Q04DX002 (ip), vehicle: saline) 2 of 3; (T/C endpoint: mean survival time, dose: 800.0 mg/kg/injection, schedule: Q01DX001 (ip), vehicle: saline with Tween-80) 1 of 6; (T/C endpoint: mean survival time, dose: 800.0 mg/kg/injection, schedule: Q01DX001 (ip), vehicle: saline) 0 of 6; (T/C endpoint: mean survival time, dose: 800.0 mg/kg/injection, schedule: Q01DX001 (sc), vehicle: saline) 3 of 6. The survivor count (T/C endpoint: mean survival time, dose: 800.0 mg/kg/injection, schedule: Q08DX002 (ip), vehicle: saline) is 0 of 6.

`c1cc2c(c(N3CCNCC3)c1)CCCC2`: under setting [4], the survivor count was 2 of 6.

For `COc1cccc2c1C(=O)OC2=O`, under “T/C endpoint: mean survival time, dose: 400.0 mg/kg/injection, schedule: Q01DX005 (ip), vehicle: Klucel (hydroxypropylcellulose) (HPC)”, the survivor count is 1 of 5.

Turning to `CCOC(=O)Nc1cc2c(c(N)n1)N=C(c1ccc(-c3ccccc3)cc1)CN2`, where the note is “T/C endpoint: mean survival time, dose: 25.0 mg/kg/injection, schedule: Q01DX001 (ip), vehicle: Klucel (hydroxypropylcellulose) (HPC)”, the T/C was 136 % of control. The survivor count (T/C endpoint: mean survival time, dose: 100.0 mg/kg/injection, schedule: Q01DX001 (ip), vehicle: Klucel (hydroxypropylcellulose) (HPC)) is recorded as 1 of 6.

As for `CCCCNC(=O)C1CC2c3cccc4c3C(CN4)CC2N(C)C1` (centres undefined), under setting [5], the survivor count is reported as 2 of 6.

Regarding `CC(=O)Nc1ccc(SCCCc2c(N)nc(N)nc2N)cc1`, under setting [4], the survivor count was 1 of 3.

In the case of `COc1cc2ccc3cnccc3c2cc1OC`, the survivor count (T/C endpoint: mean survival time, dose: 400.0 mg/kg/injection, schedule: Q01DX009 (ip), vehicle: Klucel (hydroxypropylcellulose) (HPC)) is on record as 1 of 6.

For the compound `OC1(c2ccccc2)c2cscc2C(O)(c2ccccc2)c2c(Cl)sc(Cl)c21` (centres undefined), the survivor count is given as 3 of 3 (T/C endpoint: mean survival time, dose: 50.0 mg/kg/injection, schedule: Q01DX001 (ip), vehicle: saline with Tween-80) and 3 of 3 under setting [6].

Regarding `CSc1nnc(Sc2ccccc2)c(SC)n1`, under setting [7], the survivor count was 3 of 6.

In the case of `CCCC[As](=O)(O)C(C)C`, the survivor count (T/C endpoint: mean survival time, dose: 110.0 mg/kg/injection, schedule: Q01DX001 (ip), vehicle: saline) is reported as 1 of 6.

`CC(=O)OC1(C)CC(C)C(=O)C(C(O)CC2CC(=O)NC(=O)C2)C1` (centres undefined): the T/C by setting is: (T/C endpoint: mean survival time, dose: 0.13 mg/kg/injection, schedule: Q01DX009 (ip), vehicle: saline) 126 % of control [5 of 6 alive]; (T/C endpoint: mean survival time, dose: 0.25 mg/kg/injection, schedule: Q01DX009 (ip), vehicle: saline) 129 and 131 % of control; (T/C endpoint: mean survival time, dose: 0.5 mg/kg/injection, schedule: Q01DX009 (ip), vehicle: saline) 131 and 133 % of control [5 of 6 alive].

`O=C(CC(CC(=O)C(c1ccccc1)c1ccccc1)c1ccccc1)C(c1ccccc1)c1ccccc1`: the survivor count was 3 of 3 (T/C endpoint: mean survival time, dose: 50.0 mg/kg/injection, schedule: Q04DX002 (ip), vehicle: saline with Tween-80) and 6 of 6 under setting [8].

Regarding `N#CC(c1ccccc1)C(CC(=O)c1ccccc1)c1ccccc1` (centres undefined), the survivor count (T/C endpoint: mean survival time, dose: 400.0 mg/kg/injection, schedule: Q01DX009 (ip), vehicle: saline with Tween-80) is 6 of 6.

As for `CCCCCCCCCCCCSC1=C(Cl)C(=O)C(OC)=C(OC)C1=O`, the survivor count (T/C endpoint: mean survival time, dose: 100.0 mg/kg/injection, schedule: Q01DX009 (ip), vehicle: saline with Tween-80) is given as 3 of 6.

In the case of `C(CC1CO1)CC1OC1CC1CO1` (centres undefined), the T/C (T/C endpoint: mean survival time, dose: 59.0 mg/kg/injection, schedule: Q01DX009 (ip), vehicle: saline) was 130 % of control; the T/C (T/C endpoint: mean survival time, dose: 89.0 mg/kg/injection, schedule: Q01DX009 (ip), vehicle: saline) was 136 % of control; the T/C under setting [7] is 143 % of control [4 of 6 alive]. Moreover, the survivor count reads like this: (T/C endpoint: mean survival time, dose: 133.0 mg/kg/injection, schedule: Q01DX009 (ip), vehicle: saline) 6 of 6; under setting [1], 1 of 6; (T/C endpoint: mean survival time, dose: 300.0 mg/kg/injection, schedule: Q01DX009 (ip), vehicle: saline) 0 of 6; (T/C endpoint: mean survival time, dose: 450.0 mg/kg/injection, schedule: Q01DX009 (ip), vehicle: saline) 0 of 6.

For the compound `Cc1cc(NC(=O)Nc2cc(Cl)ccc2C)no1`, under “T/C endpoint: mean survival time, dose: 100.0 mg/kg/injection, schedule: Q01DX009 (ip), vehicle: Klucel (hydroxypropylcellulose) (HPC)”, the survivor count is 3 of 3.

As to `O=C1/C(=C\c2ccc(Cl)cc2)SC(=S)N1/N=C/c1ccc(Cl)cc1`, the survivor count is, setting by setting: under setting [6], 3 of 3; under setting [4], 3 of 3.

Regarding `O=C(c1ccccc1)C1C(c2ccccc2)OP(c2ccccc2)(c2ccccc2)(c2ccccc2)C1c1ccccc1` (centres undefined), the survivor count reads like this: under setting [8], 1 of 6; under setting [5], 0 of 6; under setting [2], 0 of 6.

For `NC(N)=N/N=C/c1cc(Br)ccc1O`, the survivor count (T/C endpoint: mean survival time, dose: 75.0 mg/kg/injection, schedule: Q01DX009 (ip), vehicle: saline) is listed as 3 of 6 and the survivor count (T/C endpoint: mean survival time, dose: 150.0 mg/kg/injection, schedule: Q01DX009 (ip), vehicle: saline) is recorded as 2 of 6.

Consider `CCOC(=O)c1c2c3c(c(Br)ccc3n(C)c1=O)C(=O)c1ccccc1-2`, for which the survivor count runs as follows: (T/C endpoint: mean survival time, dose: 100.0 mg/kg/injection, schedule: Q01DX009 (ip), vehicle: saline) 6 of 6; under setting [1], 1 of 6; (T/C endpoint: mean survival time, dose: 400.0 mg/kg/injection, schedule: Q01DX009 (ip), vehicle: saline) 0 of 6.

With `CC1=CCC=C(CNc2ncnc3nc[nH]c23)C1`, the survivor count by setting is: under setting [5], 6 of 6; under setting [2], 5 of 6.

As for `Cc1ccc(C(=O)Nc2ccc(S(=O)(=O)O)c3cc(S(=O)(=O)O)cc(S(=O)(=O)O)c23)cc1NC(=O)c1cccc(NC(=O)Nc2cccc(C(=O)Nc3cc(C(=O)Nc4ccc(S(=O)(=O)O)c5cc(S(=O)(=O)O)cc(S(=O)(=O)O)c45)ccc3C)c2)c1`, the survivor count (T/C endpoint: median survival time, dose: 100.0 mg/kg/injection, schedule: Q01DX005 (ip), vehicle: saline) was 5 of 6 and the survivor count (T/C endpoint: median survival time, dose: 200.0 mg/kg/injection, schedule: Q01DX005 (ip), vehicle: saline) is recorded as 1 of 6.

With `OC1CCCCCCCCCCC1C(O)(C(F)(F)F)C(F)(F)F` (centres undefined), the survivor count under setting [4] is 1 of 6.

The values above are taken from PubChem BioAssay AID256 (DTP/NCI, 2004).
